# Measured values as given in the supplement of paper PMC12067093, “Discovery and optimisation of a covalent ligand for TRIM25 and its application to targeted protein ubiquitination” (Chemical Science, 2025).
# Sequences of proteins named here, by UniProt entry; tags and fusion partners are left off. A change or cut given only in a name is not applied to a line headed by its entry.
# UniProt O60503: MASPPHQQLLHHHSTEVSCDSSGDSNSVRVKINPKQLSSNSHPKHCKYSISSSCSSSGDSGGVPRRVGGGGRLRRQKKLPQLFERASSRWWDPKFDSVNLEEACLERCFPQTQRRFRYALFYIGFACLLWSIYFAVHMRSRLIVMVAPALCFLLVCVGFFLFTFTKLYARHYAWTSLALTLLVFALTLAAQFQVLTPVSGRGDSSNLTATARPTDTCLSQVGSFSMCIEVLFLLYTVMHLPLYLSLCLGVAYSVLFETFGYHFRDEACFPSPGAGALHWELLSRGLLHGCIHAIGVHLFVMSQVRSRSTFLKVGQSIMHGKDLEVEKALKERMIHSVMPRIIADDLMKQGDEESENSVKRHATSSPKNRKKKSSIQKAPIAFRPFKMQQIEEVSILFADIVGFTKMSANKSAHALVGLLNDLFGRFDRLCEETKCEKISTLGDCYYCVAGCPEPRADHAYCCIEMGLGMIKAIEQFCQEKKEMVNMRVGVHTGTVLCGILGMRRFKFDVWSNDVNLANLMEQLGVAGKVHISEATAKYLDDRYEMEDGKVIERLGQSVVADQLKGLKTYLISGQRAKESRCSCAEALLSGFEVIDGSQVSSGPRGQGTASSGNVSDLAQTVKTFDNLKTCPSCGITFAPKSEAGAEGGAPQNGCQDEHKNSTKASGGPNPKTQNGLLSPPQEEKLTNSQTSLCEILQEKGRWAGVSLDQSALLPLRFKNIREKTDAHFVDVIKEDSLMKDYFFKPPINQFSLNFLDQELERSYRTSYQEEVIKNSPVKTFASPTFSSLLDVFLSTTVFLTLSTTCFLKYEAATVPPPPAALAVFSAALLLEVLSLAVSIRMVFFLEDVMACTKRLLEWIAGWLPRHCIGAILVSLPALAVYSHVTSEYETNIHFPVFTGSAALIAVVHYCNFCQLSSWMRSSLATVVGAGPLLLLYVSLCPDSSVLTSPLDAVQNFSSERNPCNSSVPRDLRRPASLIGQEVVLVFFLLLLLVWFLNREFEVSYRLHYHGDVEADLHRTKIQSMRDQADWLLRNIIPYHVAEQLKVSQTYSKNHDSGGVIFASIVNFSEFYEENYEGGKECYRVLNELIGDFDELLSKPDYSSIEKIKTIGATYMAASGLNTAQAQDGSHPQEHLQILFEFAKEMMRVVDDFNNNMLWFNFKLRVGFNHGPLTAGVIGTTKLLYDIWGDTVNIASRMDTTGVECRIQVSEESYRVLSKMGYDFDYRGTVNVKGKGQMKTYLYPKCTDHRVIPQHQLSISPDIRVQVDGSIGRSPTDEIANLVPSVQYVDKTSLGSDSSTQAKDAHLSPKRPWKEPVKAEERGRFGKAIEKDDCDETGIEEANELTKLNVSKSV
# UniProt Q16186: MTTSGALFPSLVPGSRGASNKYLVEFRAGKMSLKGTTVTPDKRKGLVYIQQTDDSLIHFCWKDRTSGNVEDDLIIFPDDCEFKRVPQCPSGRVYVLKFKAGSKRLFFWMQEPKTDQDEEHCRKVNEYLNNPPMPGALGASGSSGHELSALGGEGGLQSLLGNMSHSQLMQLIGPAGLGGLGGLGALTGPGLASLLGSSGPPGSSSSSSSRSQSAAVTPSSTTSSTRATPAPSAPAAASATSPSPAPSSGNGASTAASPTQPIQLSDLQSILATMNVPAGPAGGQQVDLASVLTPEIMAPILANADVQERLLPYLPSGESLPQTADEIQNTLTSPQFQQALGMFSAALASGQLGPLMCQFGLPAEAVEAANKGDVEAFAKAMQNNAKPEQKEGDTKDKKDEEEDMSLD
# UniProt P30566: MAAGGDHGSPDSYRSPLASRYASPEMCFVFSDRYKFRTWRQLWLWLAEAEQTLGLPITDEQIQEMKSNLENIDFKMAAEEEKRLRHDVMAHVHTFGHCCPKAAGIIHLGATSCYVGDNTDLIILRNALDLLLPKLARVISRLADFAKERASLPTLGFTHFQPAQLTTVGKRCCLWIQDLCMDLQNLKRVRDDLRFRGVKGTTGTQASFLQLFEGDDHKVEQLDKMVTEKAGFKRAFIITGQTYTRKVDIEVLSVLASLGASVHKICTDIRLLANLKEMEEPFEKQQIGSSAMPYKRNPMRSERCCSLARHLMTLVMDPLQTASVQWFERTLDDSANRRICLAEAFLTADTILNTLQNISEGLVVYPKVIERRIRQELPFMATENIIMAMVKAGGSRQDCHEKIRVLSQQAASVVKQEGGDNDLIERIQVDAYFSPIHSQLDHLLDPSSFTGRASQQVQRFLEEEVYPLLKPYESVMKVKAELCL
# UniProt O60488: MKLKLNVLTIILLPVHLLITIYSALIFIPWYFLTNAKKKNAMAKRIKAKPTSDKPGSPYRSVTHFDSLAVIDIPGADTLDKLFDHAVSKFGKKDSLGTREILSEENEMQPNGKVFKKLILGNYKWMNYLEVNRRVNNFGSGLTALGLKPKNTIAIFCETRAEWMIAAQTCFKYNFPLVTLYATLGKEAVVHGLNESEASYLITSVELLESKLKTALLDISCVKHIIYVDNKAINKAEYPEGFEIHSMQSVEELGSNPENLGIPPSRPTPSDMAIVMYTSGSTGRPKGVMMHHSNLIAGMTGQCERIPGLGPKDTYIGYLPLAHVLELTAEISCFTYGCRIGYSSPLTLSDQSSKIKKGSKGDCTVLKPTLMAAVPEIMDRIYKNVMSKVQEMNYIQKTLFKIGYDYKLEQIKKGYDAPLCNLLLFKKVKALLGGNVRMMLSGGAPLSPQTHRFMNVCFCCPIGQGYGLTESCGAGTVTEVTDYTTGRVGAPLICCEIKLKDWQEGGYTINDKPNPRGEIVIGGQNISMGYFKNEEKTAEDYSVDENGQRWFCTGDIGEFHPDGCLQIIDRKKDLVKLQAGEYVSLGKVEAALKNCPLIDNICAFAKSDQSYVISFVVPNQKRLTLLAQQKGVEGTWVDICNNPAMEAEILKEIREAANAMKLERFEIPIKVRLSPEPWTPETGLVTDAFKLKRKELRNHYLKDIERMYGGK
# UniProt Q9UHB7: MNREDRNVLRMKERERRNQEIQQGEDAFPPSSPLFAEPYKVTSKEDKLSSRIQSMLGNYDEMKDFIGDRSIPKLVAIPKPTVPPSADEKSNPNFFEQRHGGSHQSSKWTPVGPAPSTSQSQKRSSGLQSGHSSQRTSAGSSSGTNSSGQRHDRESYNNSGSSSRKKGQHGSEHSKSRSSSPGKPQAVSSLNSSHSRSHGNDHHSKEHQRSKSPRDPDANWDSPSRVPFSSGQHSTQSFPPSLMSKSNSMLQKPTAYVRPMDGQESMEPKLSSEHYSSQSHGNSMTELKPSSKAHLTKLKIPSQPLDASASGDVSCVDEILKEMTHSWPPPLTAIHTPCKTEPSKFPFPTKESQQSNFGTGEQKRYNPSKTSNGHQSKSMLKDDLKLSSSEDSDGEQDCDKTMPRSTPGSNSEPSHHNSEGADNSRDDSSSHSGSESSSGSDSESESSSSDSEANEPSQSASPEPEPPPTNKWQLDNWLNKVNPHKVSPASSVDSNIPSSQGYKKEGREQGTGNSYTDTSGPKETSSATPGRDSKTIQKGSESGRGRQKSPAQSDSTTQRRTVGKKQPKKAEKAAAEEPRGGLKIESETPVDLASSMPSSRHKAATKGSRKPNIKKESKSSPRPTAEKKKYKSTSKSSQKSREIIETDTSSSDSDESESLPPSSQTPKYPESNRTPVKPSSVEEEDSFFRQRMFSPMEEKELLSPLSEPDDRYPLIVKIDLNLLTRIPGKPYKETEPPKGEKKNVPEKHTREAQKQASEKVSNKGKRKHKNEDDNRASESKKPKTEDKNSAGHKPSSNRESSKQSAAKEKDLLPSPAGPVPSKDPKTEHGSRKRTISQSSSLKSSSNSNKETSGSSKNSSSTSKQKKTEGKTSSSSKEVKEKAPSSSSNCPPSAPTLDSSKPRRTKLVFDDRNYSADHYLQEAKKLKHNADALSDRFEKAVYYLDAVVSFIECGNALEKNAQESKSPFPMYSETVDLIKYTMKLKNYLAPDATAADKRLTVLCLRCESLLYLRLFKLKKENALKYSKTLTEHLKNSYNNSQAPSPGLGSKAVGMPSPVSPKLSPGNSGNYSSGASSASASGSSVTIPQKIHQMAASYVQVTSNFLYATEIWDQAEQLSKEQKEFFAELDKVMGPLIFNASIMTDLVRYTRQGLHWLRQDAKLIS
# UniProt Q96CM8: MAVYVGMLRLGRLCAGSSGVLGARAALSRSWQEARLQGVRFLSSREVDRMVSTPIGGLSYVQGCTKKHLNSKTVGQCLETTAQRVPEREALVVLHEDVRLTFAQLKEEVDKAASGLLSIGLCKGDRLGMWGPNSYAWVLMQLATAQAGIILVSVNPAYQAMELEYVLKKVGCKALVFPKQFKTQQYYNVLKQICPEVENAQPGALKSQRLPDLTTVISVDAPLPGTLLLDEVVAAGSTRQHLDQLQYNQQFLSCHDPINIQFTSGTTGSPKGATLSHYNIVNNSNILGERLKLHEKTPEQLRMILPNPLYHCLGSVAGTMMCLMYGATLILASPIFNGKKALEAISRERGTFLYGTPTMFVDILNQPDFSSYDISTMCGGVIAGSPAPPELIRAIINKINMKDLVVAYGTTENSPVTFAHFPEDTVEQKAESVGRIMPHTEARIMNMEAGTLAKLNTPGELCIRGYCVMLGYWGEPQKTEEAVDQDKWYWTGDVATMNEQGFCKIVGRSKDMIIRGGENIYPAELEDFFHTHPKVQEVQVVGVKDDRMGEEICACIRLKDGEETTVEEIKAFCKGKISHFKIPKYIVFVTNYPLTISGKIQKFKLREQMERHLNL
# UniProt Q9Y4W6: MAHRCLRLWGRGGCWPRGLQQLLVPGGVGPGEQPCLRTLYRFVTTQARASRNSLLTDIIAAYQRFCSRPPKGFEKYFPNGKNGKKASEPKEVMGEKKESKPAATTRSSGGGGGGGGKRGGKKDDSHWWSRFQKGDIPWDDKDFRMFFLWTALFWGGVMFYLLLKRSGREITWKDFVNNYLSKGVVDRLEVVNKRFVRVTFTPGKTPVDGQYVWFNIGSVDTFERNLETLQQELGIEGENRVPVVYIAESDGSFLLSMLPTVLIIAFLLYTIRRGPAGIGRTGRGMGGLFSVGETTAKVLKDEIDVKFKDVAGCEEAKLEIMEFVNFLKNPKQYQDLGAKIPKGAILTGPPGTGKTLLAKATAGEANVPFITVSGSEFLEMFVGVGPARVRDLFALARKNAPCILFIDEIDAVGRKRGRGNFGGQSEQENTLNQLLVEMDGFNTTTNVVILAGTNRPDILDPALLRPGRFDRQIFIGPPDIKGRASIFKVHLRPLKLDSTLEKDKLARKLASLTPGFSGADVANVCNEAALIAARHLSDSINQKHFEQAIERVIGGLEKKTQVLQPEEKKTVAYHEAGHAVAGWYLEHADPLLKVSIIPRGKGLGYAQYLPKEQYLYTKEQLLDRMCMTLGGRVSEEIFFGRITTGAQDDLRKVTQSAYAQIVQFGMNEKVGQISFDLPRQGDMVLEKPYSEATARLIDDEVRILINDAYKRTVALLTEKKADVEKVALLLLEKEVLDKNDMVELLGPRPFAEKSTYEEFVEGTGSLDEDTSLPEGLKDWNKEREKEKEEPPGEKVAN
# UniProt O95573: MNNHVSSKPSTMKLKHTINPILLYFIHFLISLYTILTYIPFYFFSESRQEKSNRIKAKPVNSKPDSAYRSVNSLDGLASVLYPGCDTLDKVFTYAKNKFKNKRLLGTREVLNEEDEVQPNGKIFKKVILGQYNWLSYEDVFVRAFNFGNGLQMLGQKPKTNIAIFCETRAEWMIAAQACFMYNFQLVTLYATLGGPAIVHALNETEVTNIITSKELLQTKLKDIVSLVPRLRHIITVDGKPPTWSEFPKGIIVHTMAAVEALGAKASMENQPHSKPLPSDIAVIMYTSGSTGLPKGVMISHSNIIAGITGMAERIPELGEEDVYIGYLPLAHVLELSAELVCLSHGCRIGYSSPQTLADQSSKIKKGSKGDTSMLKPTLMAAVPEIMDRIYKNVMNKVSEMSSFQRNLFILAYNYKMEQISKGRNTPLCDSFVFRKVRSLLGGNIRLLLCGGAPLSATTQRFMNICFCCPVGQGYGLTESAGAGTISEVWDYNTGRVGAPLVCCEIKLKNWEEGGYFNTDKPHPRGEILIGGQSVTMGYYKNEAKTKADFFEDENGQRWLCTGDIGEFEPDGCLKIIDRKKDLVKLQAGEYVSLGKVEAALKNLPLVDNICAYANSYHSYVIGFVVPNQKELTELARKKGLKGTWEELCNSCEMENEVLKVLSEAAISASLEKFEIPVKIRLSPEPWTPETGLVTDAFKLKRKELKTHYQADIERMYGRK
# Some of the results follow.
# Compound: Cc1cc(ccc1-c1ccccc1)C(=O)N1CCCN(CC1)C(=O)CCl [compound 10]
# Assay: probe-labelled cysteine peptide fold change vs DMSO (competition) (log2 fold change); higher = less target engagement (more negative = stronger competition)
# Settings: THP-1, incubation time: 4 h
# 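Further: competitive profiling in live THP-1 cells: cysteine peptides tagged with an iodoacetamide desthiobiotin (IA-DTB) probe, intensity after compound treatment relative to DMSO-treated cells.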
Target,probe-labelled cysteine peptide fold change (10 µM),probe-labelled cysteine peptide fold change (50 µM)
ADCY9_O60503_1204_MDTTGVECR (UniProt O60503),0.0815,-0.0282
ADPGK_Q9BRR6_415_VAGTQACATETIDTSR (UniProt Q9BRR6),-0.224,0.176
ADRM1_Q16186_88_RVPQCPSGR (UniProt Q16186),-0.183,0.0421
ACSS3_Q9H6R3_285_AQSHDCVPVLSEHPLYILYTSGTTGLPK (UniProt Q9H6R3),0.038,0.0411
ADSL_P30566_27_YASPEMCFVFSDR (UniProt P30566),0.0352,-0.1
ACTR3_P61158_408_KDYEEIGPSICR (UniProt P61158),-0.045,-0.293
ACTR3_P61158_235_YSYVCPDLVK (UniProt P61158),-0.059,-0.00812
ACSL4_O60488_552+564_WFCTGDIGEFHPDGCLQIIDR (UniProt O60488),-0.181,-0.203
ACSL4_O60488_420_GYDAPLCNLLLFKK (UniProt O60488),-0.291,-1.12
AFF4_Q9UHB7_338_EMTHSWPPPLTAIHTPCK (UniProt Q9UHB7),-0.0876,-0.0943
ADGRL3_Q9HAR2_36_RELSCESYPIELR (UniProt Q9HAR2),-0.248,-0.197
ACSF2_Q96CM8_77_TVGQCLETTAQR (UniProt Q96CM8),-0.254,-0.0666
AFG3L2_Q9Y4W6_402_NAPCILFIDEIDAVGR (UniProt Q9Y4W6),0.163,0.357
ACSS2_Q9NR19_246_CCIVVK (UniProt Q9NR19),0.203,-0.0328
ACSL3_O95573_652_GTWEELCNSCEMENEVLK (UniProt O95573),-0.15,-0.212

# An excerpt of these results, tab-delimited:
Target	probe-labelled cysteine peptide fold change (10 µM)	probe-labelled cysteine peptide fold change (50 µM)
ADSL_P30566_27_YASPEMCFVFSDR (UniProt P30566)	0.0352	-0.1
ACTR3_P61158_408_KDYEEIGPSICR (UniProt P61158)	-0.045	-0.293
